Reference: PubChem BioAssay AID493014 (National Center for Advancing Translational Sciences (NCATS), 2011)
This is one part of the list. Further columns of the screen follow, without active or inactive calls. Compounds called inactive in the main read-out are mostly missing here. Words in brackets tell the shape of the fitted curve; partial curves, single points and poor fits give uncertain potencies. Square brackets hold non-standard residues; d marks the D form. Peptide text beside a SMILES is read from it. * marks the point of attachment. Hyp = O=C(O)[CH]1C[CH](O)CN1; Cbz = O=C(OCc1ccccc1)*; OBn = c1ccc(CO*)cc1

Assay: qHTS Assay to Find Inhibitors of Chronic Active B-Cell Receptor Signaling
Conditions: ABC-DLBCL IkBa-CBG/CBR reporter, luminescence ratio (green luciferase fused to IkBa over red control in TMD8 lymphoma cells), 4 h
How it was run: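 Compounds up to 46 uM were incubated four hours with TMD8 cells whose green CBG68 luciferase is fused to IkappaBalpha; red CBR luminescence normalised the signal, and concentration-effect curves were fitted to fusion, red and ratio data.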

[1] = measured here: CBR red luminescence, cell number
[2] = measured here: IkBa-CBG green luminescence

| Structure (SMILES) | AC50 [1] | AC50 [2] |
| --- | --- | --- |
| COc1cc(OC)cc(C(=O)n2nc(C)cc2C)c1 | 5.8 µM [rising, full curve, poor fit] | – |
| CCOC(=O)CC1C(=O)NCCN1C(=O)c1ccc(Cl)cc1 (stereo not given) | 35.5 µM [rising, single point] | – |
| C#CCOCCOCCOCCNc1nc(N2CCN(C(=O)[C@H](CCCCN)n3cc(CN)nn3)CC2)nc(N2CCN(C(=O)[C@H](CCCN=C(N)N)n3cc(C(N)[C@H](C)CC)nn3)CC2)n1 (stereo not given in full) | 29.1 µM [rising, single point] | – |
| O=C(c1cnn2cccnc12)N1CCN(c2ccccc2)CC1 | 2.31 µM [rising, single point] | – |
| Nn1c(SCc2cn3ccsc3n2)nnc1-c1ccncc1 | 29.1 µM [rising, single point] | – |
| O=C(NC1CC1)C1CCN(c2ccc(S(=O)(=O)N3CCOCC3)cc2)CC1 | 23.1 µM [falling, single point] | – |
| COc1ccc(-c2cn3nc(N4CCCC(C(=O)NCc5ccc(Cl)cc5)C4)sc3n2)cc1 (stereo not given) | 7.08 µM [rising, full curve, poor fit] | – |
| Cc1occc1C(=O)NNC(=O)CN1C(=O)NC(C)(c2ccccc2)C1=O (stereo not given) | 5.17 µM [falling, single point] | – |
| COC(=O)COc1ccc2c(-c3ccc(OC)cc3)cc(=O)oc2c1 | 7.31 µM [falling, partial curve, poor fit] | – |
| Cc1ccc(CN2C(=O)c3ccccc3Sc3ccc(C(=O)NCCN4CCOCC4)cc32)cc1 | 28.2 µM [falling, single point] | – |
| CCOC(=O)Cn1nc(/C=C/c2ccccc2)ccc1=O | 0.178 µM [rising, full curve, poor fit] | – |
| CCN1C(=O)[C@H]2[C@@H](c3ccc(C)cc3)N3C(=O)N(c4cccc(Cl)c4)C(=O)[C@@]3(Cc3ccc(Cl)cc3)[C@H]2C1=O | 13 µM [falling, partial curve, poor fit] | – |
| COC(=O)c1sccc1NC(=O)c1cccc(OC)c1 | 20.6 µM [falling, single point] | – |
| O=C(Nc1ccc(N2CCCC(O)C2)cc1)c1snc2c(=O)[nH]cnc12 (stereo not given) | 0.82 µM [falling, partial curve, poor fit] | – |
| CCc1cc(=O)oc2cc(C)cc(OC(=O)c3ccco3)c12 | 29.1 µM [rising, single point] | 20.6 µM [falling, single point] |
| Nn1c(Cc2ccccc2)n[nH]c1=S | 3.16 µM [rising, single point] | – |
| COc1cccc(-c2[nH]nc3c2C(c2ccsc2)C(C#N)=C(N)O3)c1 (stereo not given) | 0.708 µM [falling, full curve, poor fit] | – |
| Cn1ccnc1C(=O)c1ccc(NN)c([N+](=O)[O-])c1 | 12.6 µM [falling, partial curve] | – |
| CCOc1cccc(C2C(C(=O)c3ccco3)=C(O)C(=O)N2c2nnc(C)s2)c1 (stereo not given) | 1.46 µM [rising, partial curve, poor fit] | – |
| Cc1c(C(=O)N(CCc2ccccc2)Cc2ccccc2)cccc1[N+](=O)[O-] | 15.8 µM [falling, single point] | – |
| O=C(CN1C(=O)c2ccccc2C1=O)OCc1nc2ccsc2c(=O)[nH]1 | 1.03 µM [rising, partial curve, poor fit] | – |

| Structure (SMILES) | AC50 [1] | AC50 [2] |
| --- | --- | --- |
| Cc1cc(=O)[nH]c(SCC(=O)N2c3ccccc3CC2C)n1 (stereo not given) | 32.6 µM [rising, single point] | – |
| CSc1nsc(SCC(=O)Nc2ccccc2C(=O)O)n1 | 10 µM [falling, partial curve] | – |
| COc1ccc(C)cc1Nc1cc(C)nc2ncnn12 | 18.4 µM [rising, partial curve] | 18.4 µM [falling, partial curve, poor fit] |
| c1ccc(-n2nnnc2SCc2cccc3nsnc23)cc1 | 5.62 µM [falling, single point] | – |
| Cc1ccc(C(=O)/C=C/Nc2cccc([N+](=O)[O-])c2)o1 | 29.1 µM [falling, single point] | – |
| Cc1cccc(C(=O)Oc2ccc(/C=N/NC(=O)c3cc(O)cc(O)c3)cc2)c1 | 4.47 µM [falling, partial curve, poor fit] | – |
| COc1c2c(nc3ccccc13)OC(C(C)(O)COC(C)=O)C2 (stereo not given) | 2.31 µM [rising, single point] | – |
| Cc1c(CCO)c(=O)[nH]n1S(=O)(=O)c1ccc(Cl)cc1Cl | 1 µM [rising, full curve] | – |
| O=C(Nc1ccc2c(c1)OCCO2)c1ccccc1F | 11.2 µM [falling, partial curve] | – |
| O=C(COC(=O)CN1C(=O)c2ccccc2C1=O)NC1CCCCC1 | 5.01 µM [rising, full curve, poor fit] | – |
| COc1ccc2oc(C(=O)NCCN3CCOCC3)c(C)c2c1OC | 11.2 µM [falling, partial curve] | – |
| CC1(C)CC(=O)C(CC(=O)NC(=O)NCc2ccccc2)=C(O)C1 | 32.6 µM [rising, single point] | – |
| O=C(NCC(=O)N1CC(O)CC1C(=O)N1CC(O)CC1C(=O)OCc1ccccc1)OCc1ccccc1 (stereo not drawn) (Cbz-Gly-[Hyp]-[Hyp]-OBn; configuration not given here) | 6.31 µM [falling, partial curve, poor fit] | – |
| CCOc1cc(C(=O)NC(CC(=O)O)c2ccc(OC3CCCC3)cc2)cc(OCC)c1OCC (stereo not given) | 15.8 µM [falling, single point] | – |
| COc1ccc(Nc2oc(-c3ccc(F)cc3)nc2C#N)cc1 | 0.891 µM [rising, full curve] | – |
| CC(C)(C)OC(=O)NNC(=O)Nc1ccccc1C(F)(F)F | 12.6 µM [rising, partial curve, poor fit] | – |
| Cc1cc(=O)oc2cc(OCCc3ccccc3)ccc12 | 35.5 µM [falling, partial curve, poor fit] | – |
| Cc1ccc(CN2CCN(/N=C/c3cc([N+](=O)[O-])ccc3Cl)CC2)cc1 | 4.11 µM [rising, single point] | – |
| Cc1nc(SC(C)C(=O)NC2CCCC2)c2ccccc2n1 (stereo not given) | 29.1 µM [falling, single point] | – |
| CC(C)[C@H](NC(=O)N1CCn2c1nc1ccccc12)C(=O)NCc1ccc2c(c1)OCO2 | 35.5 µM [falling, single point] | – |
| CC(=O)c1c(C)[nH]c(C(=O)CSc2ccc(F)cc2)c1C | 2.51 µM [rising, full curve, poor fit] | – |

Record cards, as listed above. Order of values: AC50 [1] | AC50 [2]
`Cc1cc(=O)oc2cc(OCCc3ccccc3)ccc12` is listed with 35.5 µM [falling, partial curve, poor fit] | –
`O=C(COC(=O)CN1C(=O)c2ccccc2C1=O)NC1CCCCC1` is listed with 5.01 µM [rising, full curve, poor fit] | –
`CCOC(=O)CC1C(=O)NCCN1C(=O)c1ccc(Cl)cc1` (stereo not given) is listed with 35.5 µM [rising, single point] | –

Following part:

| Structure (SMILES) | AC50 [1] | AC50 [2] |
| --- | --- | --- |
| O=C(Nc1nccs1)c1sc2ccccc2c1Cl | 13 µM [falling, partial curve] | – |
| COc1ccc(C(c2sc3nc(C)nn3c2O)N2CCN(Cc3ccccc3)CC2)cc1OC (stereo not given) | 5.17 µM [falling, partial curve, poor fit] | – |
| COc1ccc(NS(=O)(=O)c2cccc(C(=O)NNC(=O)c3ccccc3O)c2)cc1 | 29.1 µM [falling, single point] | – |
| CC(=O)Nc1ccc(S(=O)(=O)N(C)CC(=O)Nc2nc3ccccc3[nH]2)cc1 | 20.6 µM [falling, single point] | – |
| COCCNC(=S)N/N=C(\C)c1ccc(OC)cc1 | 32.6 µM [falling, single point] | 29.1 µM [falling, single point] |
| CCc1cc(C(=O)NNC(=S)NC(C)c2ccccc2)cs1 (stereo not given) | 29.1 µM [falling, single point] | – |
| COc1cc2c(cc1NC(=O)Nc1ccccc1)oc1ccccc12 | 35.5 µM [falling, single point] | – |
| N#CCc1nc(C(c2ccccc2)c2ccccc2)no1 | 10 µM [falling, partial curve, poor fit] | – |
| CC(c1n[nH]c(=S)n1-c1ccccc1)N1CCCCC1 (stereo not given) | 7.94 µM [rising, partial curve, poor fit] | – |
| COc1cccc(OC)c1C(=O)Nc1cccc(C(=O)Nc2cccc(C(=O)O)c2)c1 | 11.2 µM [falling, partial curve] | – |
| CCN1C(=O)c2cccc3c(S(=O)(=O)Nc4ccccc4OC)ccc1c23 | 35.5 µM [rising, single point] | – |
| S=C(NCc1ccco1)Nc1cc(Cl)c(Cl)cc1Cl | 16.4 µM [falling, partial curve] | – |
| Cc1ccc(-c2csc3nc(C)n(-n4c(C)ccc4C)c(=O)c23)o1 | 2.82 µM [rising, full curve] | – |
| Cc1cc(-c2nnc(SCC(=O)Nc3nc(-c4ccccc4)cs3)o2)no1 | 0.501 µM [rising, full curve, poor fit] | – |
| COc1cc(C(=O)NCC(=O)N/N=C\C(C)=C/c2ccccc2)cc(OC)c1OC | 0.398 µM [rising, full curve, poor fit] | – |
| CC1(C)CC(=O)C=C(NNC(=O)c2cccnc2)C1 | 14.1 µM [falling, single point] | – |
| CC(NCC(O)COc1ccc(S(=O)(=O)N2CCOCC2)cc1)c1ccccc1 (stereo not given) | 14.1 µM [falling, single point] | – |
| COc1cccc(C(=O)Nc2nc(SCc3ccc(Cl)cc3)n[nH]2)c1 | – | 35.5 µM [falling, single point] |
| CC1=C(C(=O)Nc2cccnc2)C(c2ccc3c(c2)OCO3)C2=C(CCCC2=O)N1 (stereo not given) | 9.2 µM [rising, partial curve, poor fit] | – |
| COc1cccc(NC(=S)NNC(=O)Cn2nc([N+](=O)[O-])cc2C)c1 | 10 µM [rising, partial curve] | – |

Given as tab-separated lines: entries from further up
Structure (SMILES)	AC50 [1]	AC50 [2]
Cc1ccc(C(=O)/C=C/Nc2cccc([N+](=O)[O-])c2)o1	29.1 µM [falling, single point]	–
Cc1cccc(C(=O)Oc2ccc(/C=N/NC(=O)c3cc(O)cc(O)c3)cc2)c1	4.47 µM [falling, partial curve, poor fit]	–
